Data reported in publication PMC4029751.

Chains of the proteins cited; added tags and fusions are not shown. Lines headed by an entry give the natural chain unless they say otherwise; changes in a name come on top.
UniProt S0BEC9: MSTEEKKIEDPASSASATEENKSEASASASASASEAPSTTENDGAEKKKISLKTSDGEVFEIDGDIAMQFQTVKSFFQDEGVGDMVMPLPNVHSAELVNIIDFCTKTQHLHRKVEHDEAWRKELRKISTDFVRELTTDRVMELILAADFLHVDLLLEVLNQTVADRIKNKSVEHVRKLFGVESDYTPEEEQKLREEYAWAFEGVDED

Tests used:
[1] = biological target: GST-fused MdSBP1 (Malus × domestica (apple)) (UniProt U6C5A1); assay: pull-down; GST fusions (crude proteins from E. coli) on Glutathione Sepharose 4B; incubated with wheat-germ translation products of FLAG-tagged MdCUL1s at 4°C for 2 hours; eluted with 2 × SDS loading buffer; anti-FLAG blot; only the target purified
[2] = biological target: GST-fused MdSSK1 (Malus × domestica (apple)) (UniProt S0BEC9); assay: as above

binding [1]	binding [2]	Substance
binds	binds	FLAG-tagged MdCUL1A (from UniProt A0A060PJX1)
binds	no binding	FLAG-tagged MdCUL1B (from UniProt A0A060PMD9)

No constants are given. Whether binding was seen depends on the method and setting. Binding seen in cells or lysates may run through a third protein. Binding can be weak; no strength is given.
